Test results: US7691889B2, “Antimycobacterial compounds” (Lupin Limited, priority 2002, dated 2010)
For at least one compound, name, drawing or mass did not settle the structure.

Test system: M. avium-intracellular complex
Assay: In vitro agar dilution assay (MIC), M. avium-intracellular complex
Format: cell-based
Conditions: Table II

In the case of `O=C(CCC(=O)c1ccc2ccccc2c1)NC[C@H]1CN(c2ccc([N+]3([O-])CCOCC3)c(F)c2)C(=O)O1` [Compound 30, (S)-N-[[3-(3-fluoro-4-morpholinylphenyl)-2-oxo-5-oxazolidinyl]methyl]-4-(4-2-naphthyl)-4-oxobutanamide-N-oxide], the “MIC M. avium-intracellular complex” value is reported as 8.0->16.0.
